Laboratory results published in PubChem BioAssay AID1671190 (National Center for Advancing Translational Sciences (NCATS), 2021).
Screen size: about 580,000 compounds; about 6,100 (1.1%) were called active. Inconclusive means that the source gave no clear call. Such entries were picked first, then a sample of the others. The call rests on the fitted dose curve; in most records, active means well fitted inhibition curve with a large enough effect; inconclusive means small, poorly fitted or top-dose-only effect, or another doubt; inactive means no such curve, though single readings can be large or run the other way. A potency beside an inconclusive call is a rough fit, not a confirmed value.

Chains of the proteins cited; added tags and fusions are not shown.
UniProt P18054, whole entry, looked up: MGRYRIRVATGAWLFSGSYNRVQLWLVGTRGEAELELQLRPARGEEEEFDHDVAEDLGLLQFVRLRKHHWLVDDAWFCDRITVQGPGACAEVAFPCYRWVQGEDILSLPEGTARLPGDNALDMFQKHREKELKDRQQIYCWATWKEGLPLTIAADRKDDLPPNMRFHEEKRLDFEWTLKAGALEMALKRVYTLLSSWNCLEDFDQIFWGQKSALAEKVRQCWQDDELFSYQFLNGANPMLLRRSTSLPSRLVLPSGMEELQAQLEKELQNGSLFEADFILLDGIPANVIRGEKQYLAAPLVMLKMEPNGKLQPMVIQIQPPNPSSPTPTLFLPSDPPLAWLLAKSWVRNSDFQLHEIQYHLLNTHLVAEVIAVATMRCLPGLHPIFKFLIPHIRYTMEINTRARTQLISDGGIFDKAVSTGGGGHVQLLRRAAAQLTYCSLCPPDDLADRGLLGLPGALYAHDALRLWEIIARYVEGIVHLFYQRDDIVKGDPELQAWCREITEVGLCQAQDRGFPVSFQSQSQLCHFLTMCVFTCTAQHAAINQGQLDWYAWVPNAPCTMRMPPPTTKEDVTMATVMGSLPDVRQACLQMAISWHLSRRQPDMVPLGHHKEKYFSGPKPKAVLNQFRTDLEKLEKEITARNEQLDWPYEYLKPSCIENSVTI

target: Polyunsaturated fatty acid lipoxygenase ALOX12 (Homo sapiens) (UniProt P18054); experiment: Primary qHTS assay for inhibitors of human arachidonate 12S-lipoxygenase (ALOX12): Round 2; conditions: purified 12hLO, xylenol orange hydroperoxide absorbance; activity change, negative = inhibition: at 108 µM (top of the series) unless noted
Summary of the method: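 Purified human 12hLO at 150 nM in 25 mM Hepes, 0.01% Triton X-100, pH 7.0, preincubated 15 min at room temperature with compound. Reaction started with 40 uM arachidonic acid, 30 min at room temperature. Hydroperoxide measured by Fe-xylenol orange, 573/405 nm absorbance ratio.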
On the % scale 0 is the no-effect control and ±100 the full control effect; potency means the concentration at half of the fitted maximal effect.

SMILES | activity change, negative = inhibition | Potency
CCNS(=O)(=O)c1c(C)cc(N2CCCC2=O)cc1C | inactive: 61% | 
COc1ccc(C(=O)c2sc(Nc3ccccc3)nc2N)cc1 |  | inconclusive: 56.2 µM [inhibitor, single point]
O=C(Oc1coc(CSc2nnc(NC(=O)c3cccs3)s2)cc1=O)c1ccccc1 | inactive: -16.4% | 
O=C(NCc1cccs1)c1cc(C2CC2)nc2onc(C3CCNCC3)c12 | inconclusive: -33.5% [inhibitor] | 
COC(=O)c1nc[nH]c1[N+](=O)[O-] |  | inconclusive: 8.91 µM [inhibitor, full curve, poor fit]
O=C1C(Cl)=C(NCC2CCCO2)C(=O)N1c1cccc(Cl)c1Cl (stereo unspecified) |  | inconclusive: 44.7 µM [inhibitor, partial curve, poor fit]
CCOC(=O)c1cc(-c2ccccc2C)nn1CC1CC(c2cccnc2)=NO1 (stereo unspecified) |  | inconclusive: 12.6 µM [inhibitor, full curve]
CCOC(=O)N1CCC(NCCNC(=O)c2ccc(F)cc2)CC1 |  | inconclusive: 44.7 µM [inhibitor, partial curve, poor fit]
Cc1cc(Cl)c(OCCCN2CCCCC2)c(Br)c1 |  | inconclusive: 12.6 µM [inhibitor, partial curve]
CC(C)C[C@H]1CNC(=S)N1C[C@H]1CCCN1C[C@H](CC(C)C)N1C[C@H](Cc2ccccc2)N(CCc2ccccc2)C1=S |  | inconclusive: 35.5 µM [inhibitor, partial curve, poor fit]
Cc1ccc(C(c2nnnn2Cc2ccccc2)N2CCN(Cc3ccccc3)CC2)cc1 (stereo unspecified) | inactive: -3.87% | 
CC(C)CCn1c(/C=C/c2ccccc2)nc2ccccc21 |  | inconclusive: 112 µM [inhibitor, partial curve, poor fit]
C/C(Cl)=C\C[N+]1(C/C=C(\C)Cl)CCCCC1 |  | inconclusive: 0.794 µM [inhibitor, full curve]
CN1C(=O)/C(=C/c2ccccc2OCc2ccc(F)cc2)N(C)C1=S | inactive: -18.6% | 
CCc1nnc(NC(=O)c2ccncc2)s1 |  | inconclusive: 126 µM [inhibitor, partial curve, poor fit]
O=C(CSc1nnc(-c2ccco2)o1)c1ccc[nH]1 |  | inconclusive: 17.8 µM [inhibitor, partial curve, poor fit]
COc1ccccc1-n1ccnc1SCC(=O)Nc1nc(C)cs1 | inactive: -2.29% | 
CCN(CC)c1nc2ccccc2s1 |  | inconclusive: 4.47 µM [inhibitor, full curve, poor fit]
Fc1ccc(CN2CCCCCCC2)c(F)c1 |  | active: 0.447 µM
CCOC(=O)c1ccc2[nH]c(C)c(C)c2c1 | inactive: 0% | 
CCc1cc(-c2[nH]ncc2-c2ccc(OC)cc2)c(O)cc1O |  | inconclusive: 44.7 µM [inhibitor, partial curve, poor fit]
CC1=NN(c2ccc([N+](=O)[O-])cc2)C(=O)C1[N+](=O)[O-] (stereo unspecified) | inactive: -28.3% | 

SMILES | activity change, negative = inhibition | Potency
N#Cc1nc(COc2ccc(Cl)cc2)oc1NCc1ccc2c(c1)OCO2 |  | inconclusive: 14.1 µM [inhibitor, partial curve]
O=C(N/N=C/c1ccc([N+](=O)[O-])cc1)c1ccccc1OCc1ccccc1 | inactive: 5.48% | 
CN1CCN(C(=O)c2ccccc2Nc2ccc(SC(F)F)cc2)CC1 |  | inconclusive: 20 µM [inhibitor, full curve, poor fit]
CCc1nn2c(=O)cc(CNc3cc4c(cc3Cl)OCCCO4)nc2s1 |  | inconclusive: 50.1 µM [inhibitor, single point]
COc1ccc(N=N/C(=C\O)C(=O)c2cccs2)cc1 |  | active: 35.5 µM
COc1ccc(S(=O)(=O)NC(C)C(=O)Nc2cccc(C(C)=O)c2)cc1 (stereo unspecified) |  | inconclusive: 35.5 µM [inhibitor, partial curve, poor fit]
Cc1ccsc1-c1n[nH]c(=S)n1C1CCCCC1 |  | inconclusive: 89.1 µM [inhibitor, partial curve, poor fit]
Cc1c(N=Nc2ccc(O)cc2)c(=O)n(-c2ccccc2)n1C | inactive: 7.75% | 
CCC(=O)N1C2CCCC1CC(=O)C2 |  | inconclusive: 12.6 µM [inhibitor, full curve]
CSC[C@H]1CN(Cc2ccccc2)C(=O)[C@@H]1CC(=O)Nc1ccccc1 | inactive: -6.06% | 
COC(=O)c1cc2c(c3c4cc(F)ccc4n(S(=O)(=O)c4ccccc4)c13)C(=O)N(Cc1ccco1)C2 |  | inconclusive: 39.8 µM [inhibitor, partial curve, poor fit]
Cc1cc(Cl)ccc1OCC(=O)N1[C@@H]2CC[C@H]1CC(NC(=O)c1ccncc1)C2 (stereo partly specified) |  | inconclusive: 28.2 µM [inhibitor, full curve]
N#CC1=C(N)NC(SCc2ccc(F)cc2)=C(C#N)C12CCCCC2 |  | inconclusive: 20 µM [inhibitor, partial curve, poor fit]
CCOC(=O)C1(CCc2ccccc2)CCN(C(=O)[C@@H]2C[C@@H](C)NC(=S)N2)CC1 |  | inconclusive: 79.4 µM [inhibitor, partial curve, poor fit]
CC1(C)CCCC(C)(C#CCN2CCN(C(c3ccccc3)c3ccccc3)CC2)O1 (stereo unspecified) |  | active: 10 µM
C/C(=N\Nc1cc(N2CCOCC2)nc(C)n1)c1cccc([N+](=O)[O-])c1 | inactive: -24.8% | 
COc1ccccc1C(=O)Nc1sc(Nc2ccccc2)nc1C(N)=O |  | inconclusive: 56.2 µM [inhibitor, partial curve, poor fit]
N=c1c2c(ncn1CCCO)Oc1ccc3ccccc3c1C2c1ccccc1 (stereo unspecified) |  | inconclusive: 70.8 µM [inhibitor, partial curve, poor fit]
Cc1cccc(OCC(=O)Nc2nc3ccc([N+](=O)[O-])cc3s2)c1 |  | inconclusive: 126 µM [inhibitor, partial curve, poor fit]
COc1cc(OC)c2c(-c3ccccc3)cc(=O)oc2c1C(CCN1CCCCC1)c1ccc2c(c1)OCO2 (stereo unspecified) |  | inconclusive: 63.1 µM [inhibitor, partial curve, poor fit]
CCOC(=O)c1ccc(CN(Cc2ccc(Br)cc2)S(=O)(=O)c2cccc(Cl)c2C)cc1 | inactive: -21.8% | 
Cc1nc(C)c(-c2csc(Nc3ccccn3)n2)s1 |  | inconclusive: 112 µM [inhibitor, single point]

Two entries from above, as labelled records:
CCc1nnc(NC(=O)c2ccncc2)s1
  Potency: inconclusive: 126 µM [inhibitor, partial curve, poor fit]
O=C(CSc1nnc(-c2ccco2)o1)c1ccc[nH]1
  Potency: inconclusive: 17.8 µM [inhibitor, partial curve, poor fit]

The list goes on.

SMILES | activity change, negative = inhibition | Potency
Cc1c(C(=O)N2CCCCC2)c(S(=O)(=O)N2CCC(C)CC2)c(C)n1C | inactive: 6.26% | 
Cc1ccc(-c2ccc(/C=C3\C(=O)ON=C3c3ccccc3)o2)c([N+](=O)[O-])c1 |  | active: 4.47 µM
COCCN1CCCCCC(O)c2cc(C(=O)NCCc3c[nH]c4ccccc34)ccc21 (stereo unspecified) | inactive: 18.5% | 
Cc1cc(C)c(NC(=O)CNC(=O)c2cc([N+](=O)[O-])ccc2N2CCOCC2)c(C)c1 |  | inconclusive: 100 µM [inhibitor, single point]
CCCCN1CCC(CNC(=O)c2cccc(C3CCNC3)c2)CC1 (stereo unspecified) |  | inconclusive: 14.1 µM [inhibitor, full curve]
C(=C\c1ccco1)/c1nc2ccccc2[nH]1 |  | inconclusive: 44.7 µM [inhibitor, partial curve, poor fit]
O=C(C1NCCc2[nH]cnc21)N1CCc2c(nc(CC3CC3)[nH]c2=O)C1 (stereo unspecified) |  | inconclusive: 3.16 µM [inhibitor, full curve, poor fit]
COc1ccccc1NC(=O)COC(=O)c1[nH]c(=O)[nH]c(=O)c1N |  | inconclusive: 3.98 µM [inhibitor, full curve, poor fit]
Cc1cc2oc(=O)cc(CN3CCc4ccccc43)c2cc1C |  | inconclusive: 44.7 µM [inhibitor, single point]
O=C(CN1C(=O)c2ccc(Br)cc2C1=O)NCC1CCCO1 (stereo unspecified) | inactive: 0% | 
S=c1[nH]nc(NCCCN2CCOCC2)s1 |  | inconclusive: 39.8 µM [inhibitor, partial curve]
N#Cc1c(NC(=O)CSC2=NCCS2)sc2c1CCCC2 | inactive: -25.4% | 
COc1cccc(N=Nc2ccc(O)c3ncccc23)c1 |  | inconclusive: 8.91 µM [inhibitor, full curve, poor fit]
Cc1ccc(S(=O)(=O)NC[C@H]2O[C@@H](CC(=O)N3CCCC3)[C@H](O)[C@@H]2O)cc1 |  | inconclusive: 5.01 µM [inhibitor, full curve]
COc1ccc(NC(=O)c2ccc(NC(=O)c3nc4nc(C)cc(C)n4n3)cc2)cc1 |  | inconclusive: 126 µM [inhibitor, partial curve, poor fit]
Cc1ccc(C2C(C(N)=S)=C(N)OC3=C2C(=O)CC(C)(C)C3)cc1 (stereo unspecified) |  | inconclusive: 20 µM [inhibitor, partial curve, poor fit]
O=C(NCc1cccc(C(F)(F)F)c1)C1CN(c2cccc(Cl)c2)C(=O)N1 (stereo unspecified) |  | inconclusive: 28.2 µM [inhibitor, partial curve]
CCc1ccc(-c2nn(-c3ccccc3)cc2CSC(=N)N)cc1 |  | inconclusive: 44.7 µM [inhibitor, partial curve, poor fit]
COc1ccc(CCNc2ccc(C(CC(N)=O)NC(=O)Cc3ccc(Br)cc3)cc2[N+](=O)[O-])cc1 (stereo unspecified) |  | inconclusive: 158 µM [inhibitor, partial curve, poor fit]
COc1cc2nc(SCc3ccc(Cl)cc3Cl)n(Cc3cccs3)c(=N)c2cc1OC | inactive: -16.3% | 
O=C(c1cccc(F)c1)N1CCN(c2ccc([N+](=O)[O-])c(N3CCOCC3)c2)CC1 |  | inconclusive: 15.8 µM [inhibitor, partial curve, poor fit]
COc1ccc(CNC(=O)c2nc3nc(-c4ccccc4)c(Cl)cc3n2C)cc1OC |  | inconclusive: 100 µM [inhibitor, partial curve, poor fit]
